Experimental data: PubChem BioAssay AID1159584 (Peter MacCallum Cancer Centre, 2016)
Assay: 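Knock-downs that harm CDH1-null cells more than parental MCF10A cells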 (primary screen). System: human MCF10A breast epithelial cells, parental and CDH1-null. Reagent: siRNA against human genes. Detection: 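ATP luminescence (CellTiter-Glo) viability per line relative to mean mock wells over all plates, and the ratio of CDH1-null to parental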. Direction: CDH1-null / parental viability ratio: higher = CDH1-null cells survive relatively better than parental; CDH1-null viability vs mock: higher = more viable CDH1-null cells; parental viability vs mock: higher = more viable parental cells.
This is an unselected part of about 18,000 deposited reagents. The record does not give: the amount of reagent, the time to read-out.

gene symbol	CDH1-null / parental viability ratio	CDH1-null viability vs mock (fraction of mock)	parental viability vs mock (fraction of mock)
ZNF385B (zinc finger protein 385B)	0.7	0.47	0.67
IFT22 (intraflagellar transport 22)	0.99	0.86	0.87
DNAJB5 (DnaJ heat shock protein family (Hsp40) member B5)	0.87	0.88	1.01
UQCRC1 (ubiquinol-cytochrome c reductase core protein 1)	1.18	0.87	0.74
PCBP4 (poly(rC) binding protein 4)	0.88	0.66	0.75
CLDN23 (claudin 23)	1.85	1.02	0.55
GCNT3 (glucosaminyl (N-acetyl) transferase 3, mucin type)	0.98	0.86	0.88
SQLE (squalene epoxidase)	1	0.7	0.7
MTX2 (metaxin 2)	0.95	0.59	0.62
RNF157 (ring finger protein 157)	0.95	0.74	0.78
PPP2R2A (protein phosphatase 2 regulatory subunit Balpha)	1.67	0.77	0.46
TCN1 (transcobalamin 1)	1.32	0.7	0.53
SPIC (Spi-C transcription factor)	1.06	1.04	0.98
MAPT (microtubule associated protein tau)	0.81	0.68	0.84
SOS2 (SOS Ras/Rho guanine nucleotide exchange factor 2)	1.39	0.78	0.56
MITF (melanocyte inducing transcription factor)	0.91	0.73	0.8
CLEC7A (C-type lectin domain containing 7A)	0.86	0.68	0.79
PHF1 (PHD finger protein 1)	0.95	0.72	0.76
IL12A (interleukin 12A)	0.81	0.56	0.69
TAS2R42 (taste 2 receptor member 42)	0.86	0.88	1.02
FAM24B (family with sequence similarity 24 member B)	1.01	1.01	1
LTO1 (LTO1 maturation factor of ABCE1)	1.06	0.66	0.62
EVA1B (eva-1 homolog B)	1.15	0.92	0.8
KRTAP19-5 (keratin associated protein 19-5)	0.79	0.55	0.7
TCF4 (transcription factor 4)	0.99	0.92	0.93
ORM2 (orosomucoid 2)	1.11	0.9	0.81
HECTD3 (HECT domain E3 ubiquitin protein ligase 3)	1.14	0.64	0.56
ENPEP (glutamyl aminopeptidase)	1.08	0.94	0.87
KCNJ8 (potassium inwardly rectifying channel subfamily J member 8)	1.24	1.08	0.87
CTAGE1 (cutaneous T cell lymphoma-associated antigen 1)	1.27	1.14	0.9
GPR155 (G protein-coupled receptor 155)	0.89	0.84	0.94
ASCC3 (activating signal cointegrator 1 complex subunit 3)	1.12	0.84	0.75
ETV5 (ETS variant transcription factor 5)	0.98	0.86	0.88
ATF5 (activating transcription factor 5)	0.81	0.84	1.04
CCDC126 (coiled-coil domain containing 126)	0.93	0.68	0.73
SLC12A1	1.11	0.82	0.74
SERPINA4 (serpin family A member 4)	1.33	0.32	0.24
ATP6V1C1 (ATPase H+ transporting V1 subunit C1)	0.92	0.47	0.51
SLAMF8 (SLAM family member 8)	1.04	0.74	0.71
NBPF10 (NBPF member 10)	1.32	1	0.76
KRTAP26-1 (keratin associated protein 26-1)	0.91	0.93	1.02
DEFB105A (defensin beta 105A)	0.92	0.92	1
SLC38A5	0.67	0.43	0.64
SLC6A18	1.05	0.66	0.63
STARD4 (StAR related lipid transfer domain containing 4)	0.91	0.71	0.78
TUBB2A (tubulin beta 2A class IIa)	0.64	0.52	0.81
IGFBP2 (insulin like growth factor binding protein 2)	0.9	0.76	0.84
SKP2 (S-phase kinase associated protein 2)	0.97	0.77	0.79
C10orf88 (chromosome 10 open reading frame 88)	0.82	0.56	0.68
NFKBIE (NFKB inhibitor epsilon)	0.9	0.72	0.8
KRT12 (keratin 12)	1.17	1.12	0.96
CLEC4C (C-type lectin domain family 4 member C)	0.93	0.8	0.86
KIDINS220 (kinase D interacting substrate 220)	1.04	1.12	1.08
CLIC1 (CLIC family member 1)	1.7	0.92	0.54
H3C11 (H3 clustered histone 11)	1.33	1.04	0.78
STARD3 (StAR related lipid transfer domain containing 3)	1.07	0.9	0.84
BORCS6 (BLOC-1 related complex subunit 6)	1.76	0.6	0.34
PGAM4 (phosphoglycerate mutase family member 4)	1.2	1.02	0.85
LAIR1 (leukocyte associated immunoglobulin like receptor 1)	1.19	0.88	0.74
PGM2L1 (phosphoglucomutase 2 like 1)	0.88	0.52	0.59
EPS8 (EGFR pathway substrate 8, signaling adaptor)	1.2	1.08	0.9
B3GALT2 (beta-1,3-galactosyltransferase 2)	1.21	1.04	0.86
CT45A1 (cancer/testis antigen family 45 member A1)	1.03	0.77	0.75
MRPL49 (mitochondrial ribosomal protein L49)	0.79	0.6	0.76
FRK (fyn related Src family tyrosine kinase)	0.99	1.04	1.05
OTX1 (orthodenticle homeobox 1)	0.8	0.8	1
GLE1 (GLE1 RNA export mediator)	0.85	0.63	0.74
WT1-AS (WT1 antisense RNA)	0.84	0.61	0.73

Just “parental viability vs mock (fraction of mock)”, for 7 of the entries above:
KIDINS220 (kinase D interacting substrate 220) = 1.08
CLIC1 (CLIC family member 1) = 0.54
H3C11 (H3 clustered histone 11) = 0.78
STARD3 (StAR related lipid transfer domain containing 3) = 0.84
BORCS6 (BLOC-1 related complex subunit 6) = 0.34
PGAM4 (phosphoglycerate mutase family member 4) = 0.85
LAIR1 (leukocyte associated immunoglobulin like receptor 1) = 0.74
